From paper doi:10.1101/2021.04.08.438850
Like-named read-outs stand apart in the source and are kept apart here. These are yes or no findings as the source states them, for the method shown. In cells and extracts the contact can be indirect. Here binding means that the protein was enriched with, or labelled near, the bait; the list need not be complete. For part of these data: A no says only that the protein was not detected with the bait.

B1: Pof8 (LARP7 family protein), endogenous (protein, UniProt O13795 1-402)
chain: MFVPRQLNVRKIKAFTGKENNSIADGNNNKLKDEHYKHNEASKEPSHSISGGLMLNQQDRQLIEPLNPDFLSAVDSILEIYFHRERQKEKVHLAFLIQQDDFWKGIRPNPTQNNLKYALSYVTNALFHFDNSSHMVIRNENIVLPLDIPLYDRIIYVEPVPATLSNKSLLLAGKLRKYLKEFLPYVDAIGTPEGYAFVILYKKVDQSALSKLPVPPGWVLLTRKEWTNREEKYFENQLHLVKASSSDVSNSSNSFPENRYPKLTKVEKQMTKSVSKTSQTDKDEDNLDFTKNLLTRIKNLHPLTNKSTIHSLLSYVFSRQTQNIACEPMYIDYRKDETEAIIRWKTPLHAETCINAFRTQERKQNSHDDIRAHRKKGSSRPFLIAELITGEEEKNYWRMLKK
B2: Tgs1 (TMG capping enzyme) (enzyme, UniProt Q09814 1-239)
chain: MNKNEELDEDELLKKCIICPPVPKALKKYWNNRYNLFSRFDEGIWLDYQSWYSVTPEKVAVAIAKSVVDFIQPELIIDAFSGCGGNTIQFAKYCPVISIEIDPIKIAMAKHNLEIYGIPSSRVTFIQGDVLDTFKSLQFAKDYRSLVFMSPPWGGPSYSGKTVYSLNDLNPYAFDVLFKEATRISPYVAAFLPRNTDVKELAAYGSIHNKPYITNFLFEGYAKAICCYFNMKGAIARKI

Columns and labels:
[1] = molecular target: Bin3 (methyl phosphate capping enzyme homolog), protein A-tagged (S. pombe); assay: affinity purification with mass spectrometry
[2] = molecular target: Bin3 (methyl phosphate capping enzyme homolog), protein A-tagged (S. pombe); assay: affinity purification with mass spectrometry; remark: listed apart in the source

| Binder | binding [1] | binding [2] |
| --- | --- | --- |
| B1 | binds | binds |
| B2 | no binding | – |
